Assay results from US20230051263A1, “DEVICE FOR RAPID AND QU[…] OF DRUGS OF ABUSE IN SWEAT” (THE REGENTS OF THE UNIVERSITY OF MICHIGAN, priority 2020, published 2023).
Where two headings read alike, the source gives them in different places.

Assays:
[1] = cited from earlier work
[2] = system: corresponding antibody coated on capillary inner surface; assay: Detection of individual drugs in artificial sweat, inhibition curves (capillary competitive chemiluminescent ELISA); type: binding; conditions: for detection limit (IC(100-3δ)): artificial sweat, 4 μL, about 16 minutes, estimated from inhibition curves
[3] = system: four different antibodies; assay: Multiplexed drug detection with mixed drug-HRP conjugates
[4] = system: four different antibodies; assay: Multiplexed drug detection with one drug absent
[5] = High level, spiked: methadone 0.5, METH 10, amphetamine 3, THC 500 ng/mL
[6] = Intermediate level, spiked: methadone 0.05, METH 1, amphetamine 0.3, THC 50 ng/mL
[7] = Low level, spiked: methadone 0.006, METH 0.18, amphetamine 0.16, THC 0.1 ng/mL
[8] = Colorimetry, Neogen kit (ref 1), ~1.5 h, 10 μL
[9] = High level, amphetamine absent, spiked: methadone 0.6, METH 18, amphetamine 0, THC 800 ng/mL
[10] = Intermediate level, METH absent, spiked: methadone 0.06, METH 0, amphetamine 1.6, THC 100 ng/mL
[11] = Low level, methadone absent, spiked: methadone 0, METH 0.18, amphetamine 0.16, THC 0.1 ng/mL
[12] = second 'Intermediate level' group, THC absent, spiked: methadone 0.5, METH 10, amphetamine 3, THC 0 ng/mL
[13] = methadone-HRP 2000x, METH-HRP before 8x increase, amphetamine-HRP 15000x
[14] = Colorimetry, ELISA in meconium (ref 5, Marin 2011), >1.5 h

In the case of `CN1CC[C@]23c4c5ccc(O)c4O[C@H]2[C@@H](O)C=C[C@H]3[C@H]1C5` [Morphine, morphine], the Detection limit ([1]; Quantum dots-labeled antibody fluorescence immunoassay (ref 3, Zhang 2017), >1 h, 100 μL) is listed as 270 pg/mL.
For `CCCCCc1cc(O)c2c(c1)OC(C)(C)[C@@H]1CCC(C)=C[C@@H]21` [THC, tetrahydrocannabinol], the “detection limit (IC(100-3δ))” value [2] was 20 pg/mL, the Observed [3, 5] was 463.70 ± 4.90 ng/mL and the Observed [3, 6] was 48.80 ± 3.54 ng/mL. The Observed [3, 7] was 0.18 ± 0.03 ng/mL, the Detection limit [1, 8] was 100 pg/mL and the Observed [4, 9] was 738 ± 5.70 ng/mL. It also gave an Observed [4, 10] of 106.20 ± 2.92 ng/mL, an Observed [4, 11] of 0.12 ± 0.01 ng/mL and an Observed [4, 12] of 0 ng/mL.
In the case of `CCC(=O)C(CC(C)N(C)C)(c1ccccc1)c1ccccc1` (stereo not drawn) [Methadone, methadone], the “detection limit (IC(100-3δ))” value [2] is reported as 1.6 pg/mL, the “upper limit of quantitatively analysable concentration” value (“upper limit” below) ([2]; methadone-HRP 100x dilution) is reported as 20 ng/mL and the “upper limit” value ([2]; methadone-HRP 500x dilution) is reported as 10 ng/mL. For the same compound, the “upper limit” value [2, 13] was 1 ng/mL, the Observed [3, 5] was 0.35 ± 0.06 ng/mL and the Observed [3, 6] was 0.06 ± 0.02 ng/mL. For the same compound, the Observed [3, 7] was 0.01 ± 0.01 ng/mL, the Detection limit [1, 14] was 25 ng/g and the Detection limit [1, 8] was 50 pg/mL. It also gave an Observed [4, 9] of 0.61 ± 0.14 ng/mL, an Observed [4, 10] of 0.07 ± 0.03 ng/mL and an Observed [4, 11] of 0 ng/mL. It also gave an Observed [4, 12] of 0.61 ± 0.05 ng/mL.
With `CN[C@@H](C)Cc1ccccc1` [METH, methamphetamine] the “upper limit” value ([2]; 8x higher METH-HRP concentration) was 200 ng/mL, the “detection limit (IC(100-3δ))” value [2] was 142 pg/mL and the “upper limit” value [2, 13] was 25 ng/mL. For the same compound, the Observed [3, 5] was 5.23 ± 1.27 ng/mL, the Observed [3, 6] was 1.43 ± 0.32 ng/mL and the Observed [3, 7] was 0.24 ± 0.03 ng/mL. For the same compound, the Detection limit ([1]; Colorimetry, Au@Ag core-shell nanoparticle biosensor (ref 6, Mao 2017), 2 h, 10 μL) was 14.9 pg/mL, the Detection limit [1, 14] was 20 ng/g and the Detection limit [1, 8] was 1000 pg/mL. It also gave an Observed [4, 9] of 14.60 ± 2.83 ng/mL, an Observed [4, 10] of 0 ng/mL and an Observed [4, 11] of 0.21 ± 0.03 ng/mL. For the same compound, the Observed [4, 12] was 8.12 ± 0.22 ng/mL.
For `CC(N)Cc1ccccc1` (stereo not drawn) [Amphetamine, amphetamine], the “upper limit” value ([2]; amphetamine-HRP 8000x dilution) was 40 ng/mL, the “detection limit (IC(100-3δ))” value [2] was 35 pg/mL and the “upper limit” value [2, 13] was 10 ng/mL. It also gave an Observed [3, 5] of 2.17 ± 0.31 ng/mL, an Observed [3, 6] of 0.41 ± 0.11 ng/mL and an Observed [3, 7] of 0.20 ± 0.02 ng/mL. For the same compound, the Detection limit ([1]; Colorimetry, ELISA in blood and oral fluid (ref 4, Laloup 2005), >1.5 h, 25 μL) was 10000 pg/mL, the Detection limit [1, 14] was 20 ng/g and the Observed [4, 9] was 0 ng/mL. For the same compound, the Observed [4, 10] was 1.77 ± 0.38 ng/mL, the Observed [4, 11] was 0.20 ± 0.02 ng/mL and the Observed [4, 12] was 2.56 ± 0.31 ng/mL.
